# Measurements: PMC7862700
# This is one part of the list. The exact form of the protein is not confirmed.
# Molecular target: T1, ELF2 (UniProt Q15723)
# T1 sequence: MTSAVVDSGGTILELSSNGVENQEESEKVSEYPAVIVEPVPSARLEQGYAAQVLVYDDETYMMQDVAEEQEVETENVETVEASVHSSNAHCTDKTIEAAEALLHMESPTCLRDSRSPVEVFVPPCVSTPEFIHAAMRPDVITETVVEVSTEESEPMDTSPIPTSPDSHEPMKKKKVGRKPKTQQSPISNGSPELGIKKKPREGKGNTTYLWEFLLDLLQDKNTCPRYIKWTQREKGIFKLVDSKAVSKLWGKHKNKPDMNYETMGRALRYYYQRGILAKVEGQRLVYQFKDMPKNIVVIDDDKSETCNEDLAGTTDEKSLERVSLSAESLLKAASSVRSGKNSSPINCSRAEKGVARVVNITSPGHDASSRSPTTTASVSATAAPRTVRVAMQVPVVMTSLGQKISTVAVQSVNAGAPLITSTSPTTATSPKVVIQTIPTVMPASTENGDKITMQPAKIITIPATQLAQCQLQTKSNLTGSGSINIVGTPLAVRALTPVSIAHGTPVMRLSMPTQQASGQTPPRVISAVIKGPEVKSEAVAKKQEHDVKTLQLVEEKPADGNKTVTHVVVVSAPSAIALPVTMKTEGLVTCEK
# Experiment: DAPPL (digital affinity profiling via proximity ligation, sequencing)
# Conditions: 10 mM Tris-HCl pH 7.5, 50 mM NaCl, 1 mM DTT, 4% glycerol, room temperature, 30 min; GST-TFs on glutathione beads, 16-mer random dsDNA library, 0.1% …; high values mean tight binding; double strand, one strand shown; scale: fold enrichment (6-mer frequency, TF over GST control)
row,Sequence,binding signal
1,TAGTCT,1.02
2,TTCAGC,1.18
3,GTTCCA,1.03
4,TATGGT,1.24
5,ATGTAT,1.3
6,GATGAC,1.42
7,TTTTCA,1.16
8,CCCAAT,1.24
9,TGGTAT,1.34
10,AATAAG,1.32
11,TCGCTC,1.2
12,ATAGTA,1.14
13,CTCAAT,1.17
14,CGAGTT,1.08
15,CTTGGT,1.36
16,AAATGA,1.34
17,TGCTAT,1.37
18,TGCTCA,1.26
19,TCCTCT,1.72
20,GAAGCA,1.49

# Reformatted with bars between the fields: entries from further up.
row | Sequence | binding signal
12 | ATAGTA | 1.14
13 | CTCAAT | 1.17

# (listing goes on)

row,Sequence,binding signal
1,CTAAGA,1.14
2,CGCCTT,1.42
3,ACGATC,0.984
4,ATGATT,1.18
5,ATTCCC,1.43
6,TACTGG,1.04
7,GCCTTC,1.68
8,CTCGAT,1.27
9,TACACG,1.14
10,TTGCTA,1.21
11,CCCTTT,1.49
12,TCGACT,1.39
13,CAGGAT,1.25
14,GATACT,1.13
15,TCTAGC,1.19
16,TTGATA,1.19
17,CTTAGA,1.03
18,ACGAAC,1.13
19,CCTCCC,1.46
20,ATCAAT,1.07
